Test results as given in patent publication US20250154171A1, “RAS INHIBITORS” (Revolution Medicines, Inc., priority 2023, published 2025).
Some of these results come from one statement about several compounds together.

Sequences of proteins named here, by UniProt entry; tags and fusion partners are left off. A change or cut given only in a name is not applied to a line headed by its entry. Residues count along the entry.
UniProt P01116, 1-188 isoform P01116-2 G12V: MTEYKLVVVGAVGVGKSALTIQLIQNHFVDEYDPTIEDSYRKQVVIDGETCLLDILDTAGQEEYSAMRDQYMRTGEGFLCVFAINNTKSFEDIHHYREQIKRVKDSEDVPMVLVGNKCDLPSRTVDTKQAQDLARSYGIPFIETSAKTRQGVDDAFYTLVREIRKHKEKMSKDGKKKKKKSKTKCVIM
UniProt P62937, whole entry: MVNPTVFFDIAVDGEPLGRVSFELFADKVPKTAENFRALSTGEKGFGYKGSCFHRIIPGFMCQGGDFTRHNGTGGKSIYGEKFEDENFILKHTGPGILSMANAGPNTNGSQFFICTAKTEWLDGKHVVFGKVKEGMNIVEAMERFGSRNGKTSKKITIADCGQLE

Columns and labels:
[1] = system: Capan-1 (K-Ras G12V); experiment: CellTiter-Glo cell viability assay, Capan-1; type: cell-based, human; settings: 5-day treatment, Capan-1 versus A375
[2] = molecular target: K-RasG12V (Homo sapiens, UniProt P01116+P62937, G12V); experiment: Disruption of BRAF RBD interaction with K-Ras (TR-FRET / MOA assay), K-RasG12V; type: biochemical; settings: TR-FRET with cyclophilin A and GST-BRAF RBD, read-out: IC50 with respect to K-RasG12V (disruption of BRAF RBD interaction)

Structure (SMILES)	IC50 [2]	decrease in cell viability with respect to KRAS G12V (Capan-1) versus wild-type KRAS (A375) [1]
CO[C@@H](C)c1ncccc1-c1c2c3cc(ccc3n1C1COC1)-c1csc(n1)[C@@H](N1CC3(COC3)C1)[C@H](NC(=O)[C@H]1OC[C@@H]1C)C(=O)N1CCC[C@H](N1)C(=O)OCC(C)(C)C2 (racemic) [Example A354]	< 1000 nM	greater decrease in cell viability
COC1CN([C@@H]2c3nc(cs3)-c3ccc4c(c3)c(c(-c3cc(N5CCN(C6CC6)CC5)cnc3[C@H](C)OC)n4CCO[C@H]3CCOC(C)(C)C3)CC(C)(C)COC(=O)[C@H]3NN(C(=O)[C@H]2NC(=O)[C@H]2[C@H](C)[C@@H]2C)C2CC3C2)C1 (racemic) [Example A358]	< 1000 nM	greater decrease in cell viability
CO[C@@H](C)c1ncc(N2CCN(C3CC3)CC2)cc1-c1c2c3cc(ccc3n1CCO[C@H]1CCOC(C)(C)C1)-c1csc(n1)[C@@H](N1CC3CC1C3)[C@H](NC(=O)[C@@H]1[C@@H](C)[C@H]1c1ccncn1)C(=O)N1CCCC(N1)C(=O)OCC(C)(C)C2 (mixture of isomers) [Example A359]	< 1000 nM	greater decrease in cell viability
CO[C@@H](C)c1ncc(N2CCN(C3CC3)CC2)cc1-c1c2c3cc(ccc3n1CCO[C@H]1CCOC(C)(C)C1)-c1csc(n1)[C@@H](N1CCC1)[C@H](NC(=O)[C@H]1OC[C@@H]1C)C(=O)N1CCC[C@H](N1)C(=O)OCC(C)(C)C2 (racemic) [Example A361]	< 1000 nM	greater decrease in cell viability
CO[C@@H](C)c1ncc(N2CCN(C3CC3)CC2)cc1-c1c2c3cc(ccc3n1CCOC1CCOCC1)-c1csc(n1)[C@@H](N1CC3(CCO3)C1)[C@H](NC(=O)C13CC(C1)[C@H](C)O3)C(=O)N1CCC[C@H](N1)C(=O)OCC(C)(C)C2 (racemic) [Example A364]	< 1000 nM	greater decrease in cell viability
CO[C@@H](C)c1ncccc1-c1c2c3cc(ccc3n1CCOC1CCOCC1)-c1csc(n1)[C@@H](OC[C@@H](C)N(C)C)[C@H](NC(=O)[C@@H]1[C@@H](C)[C@H]1c1ccncn1)C(=O)N1CCC[C@H](N1)C(=O)OCC(C)(C)C2 (racemic) [Example A367]	< 1000 nM	greater decrease in cell viability
CO[C@@H](C)c1ncc(N2CCN(C3CC3)CC2)cc1-c1c2c3cc(ccc3n1CCO[C@H]1CCOC(C)(C)C1)-c1csc(n1)[C@@H](N1CCC1)[C@H](NC(=O)[C@H]1[C@H](C)[C@@H]1C)C(=O)N1CCC[C@H](N1)C(=O)OCC(C)(C)C2 (racemic) [Example A371]	< 1000 nM	greater decrease in cell viability
COC1CN([C@@H]2c3nc(cs3)-c3ccc4c(c3)c(c(-c3cc(N5CCN(C6CC6)CC5)cnc3[C@H](C)OC)n4CCO[C@H]3CCOC(C)(C)C3)CC(C)(C)COC(=O)[C@@H]3CCCN(N3)C(=O)[C@H]2NC(=O)[C@@H]2[C@@H](C)[C@H]2c2ccncn2)C1 (racemic) [Example A375]	< 1000 nM	greater decrease in cell viability

Continued, in another order:

IC50 [2]	Structure (SMILES)	decrease in cell viability with respect to KRAS G12V (Capan-1) versus wild-type KRAS (A375) [1]
< 1000 nM	CO[C@@H](C)c1ncc(N2CCN(C3CC3)CC2)cc1-c1c2c3cc(ccc3n1CCO[C@H]1CCOC(C)(C)C1)-c1coc(n1)C[C@H](NC(=O)[C@H]1[C@H](C)[C@@H]1C)C(=O)N1CC3CC(C3)(N1)C(=O)OCC(C)(C)C2 (racemic) [Example A355]	greater decrease in cell viability
< 1000 nM	CO[C@@H](C)c1ncc(N2CCN(C3CC3)CC2)cc1-c1c2c3cc(ccc3n1CCO[C@H]1CCOC(C)(C)C1)-c1coc(n1)C[C@H](NC(=O)C13CC(C1)[C@H](C)O3)C(=O)N1CC3CC(C3)(N1)C(=O)OCC(C)(C)C2 (racemic) [Example A356]	greater decrease in cell viability
< 1000 nM	CCO[C@@H]1c2nc(cs2)-c2ccc3c(c2)c(c(-c2cc(N4CCN(C5CC5)CC4)cnc2[C@H](C)OC)n3CCO[C@H]2CCOC(C)(C)C2)CC(C)(C)COC(=O)[C@H]2NN(C(=O)[C@H]1NC(=O)C13CC(C1)[C@H](C)O3)C1CC2C1 (racemic) [Example A357]	greater decrease in cell viability
< 1000 nM	CO[C@@H](C)c1ncc(N2CCN(C3CC3)CC2)cc1-c1c2c3cc(ccc3n1CCO[C@H]1CCOC(C)(C)C1)-c1csc(n1)[C@@H](N1CC3CC1C3)[C@H](NC(=O)[C@@H]1[C@@H](C)[C@H]1c1cocn1)C(=O)N1CCC[C@H](N1)C(=O)OCC(C)(C)C2 (racemic) [Example A360]	greater decrease in cell viability
< 1000 nM	CO[C@@H](C)c1ncc(N2CCN(C3CC3)CC2)cc1-c1c2c3cc(ccc3n1CCO[C@H]1CCOC(C)(C)C1)-c1csc(n1)[C@@H](N1CC3(COC3)C1)[C@H](NC(=O)C13CC(C1)[C@H](C)O3)C(=O)N1CCC[C@H](N1)C(=O)OCC(C)(C)C2 (racemic) [Example A365]	greater decrease in cell viability
< 1000 nM	CO[C@@H](C)c1ncc(N2CCN(C3CC3)CC2)cc1-c1c2c3cc(ccc3n1CCOC1CCOCC1)-c1csc(n1)[C@@H](N1CC[C@H](F)C1)[C@H](NC(=O)C13CC(C1)[C@H](C)O3)C(=O)N1CC3CC(C3)(N1)C(=O)OCC(C)(C)C2 (racemic) [Example A366]	greater decrease in cell viability
< 1000 nM	CO[C@@H](C)c1ncc(N2CCN(C3CC3)CC2)cc1-c1c2c3cc(ccc3n1CCO[C@H]1CCOC(C)(C)C1)-c1csc(n1)[C@@H](N1CC3(COC3)C1)[C@H](NC(=O)N1CC[C@H]1C)C(=O)N1CCC[C@H](N1)C(=O)OCC(C)(C)C2 (racemic) [Example A368]	greater decrease in cell viability
< 1000 nM	CO[C@@H](C)c1ncc(N2CCN(C3CC3)CC2)cc1-c1c2c3cc(ccc3n1CCO[C@H]1CCOC(C)(C)C1)-c1csc(n1)[C@@H](N1CCC1)[C@H](NC(=O)[C@@H]1[C@@H](C)[C@H]1c1ccncn1)C(=O)N1CCC[C@H](N1)C(=O)OCC(C)(C)C2 (racemic) [Example A372]	greater decrease in cell viability
< 1000 nM	CO[C@@H](C)c1ncc(N2CCN(C3CC3)CC2)cc1-c1c2c3cc(ccc3n1CCO[C@H]1CCOC(C)(C)C1)-c1csc(n1)[C@@H](N1CCC1)[C@H](NC(=O)C13CC(C1)[C@H](C)O3)C(=O)N1CCC[C@H](N1)C(=O)OCC(C)(C)C2 (racemic) [Example A374]	greater decrease in cell viability
< 1000 nM	COC1CN([C@@H]2c3nc(cs3)-c3ccc4c(c3)c(c(-c3cc(N5CCN(C6CC6)CC5)cnc3[C@H](C)OC)n4CCO[C@H]3CCOC(C)(C)C3)CC(C)(C)COC(=O)[C@@H]3CCCN(N3)C(=O)[C@H]2NC(=O)[C@@H]2[C@H](C)[C@@H]2C)C1 (racemic) [Example A376]	greater decrease in cell viability
